Experimental data as given in publication PMC7180057.
These are yes or no findings as the source states them, for the method shown. In cells and extracts the contact can be indirect. For some assays here: Binding calls can cover weak binding; strength is not graded here. Tags and fused reporters may be left off the sequences shown.

T1: Tctn-GFP (pTub-Tctn-GFP) (Drosophila melanogaster) (UniProt Q9VMH0)
T1 sequence: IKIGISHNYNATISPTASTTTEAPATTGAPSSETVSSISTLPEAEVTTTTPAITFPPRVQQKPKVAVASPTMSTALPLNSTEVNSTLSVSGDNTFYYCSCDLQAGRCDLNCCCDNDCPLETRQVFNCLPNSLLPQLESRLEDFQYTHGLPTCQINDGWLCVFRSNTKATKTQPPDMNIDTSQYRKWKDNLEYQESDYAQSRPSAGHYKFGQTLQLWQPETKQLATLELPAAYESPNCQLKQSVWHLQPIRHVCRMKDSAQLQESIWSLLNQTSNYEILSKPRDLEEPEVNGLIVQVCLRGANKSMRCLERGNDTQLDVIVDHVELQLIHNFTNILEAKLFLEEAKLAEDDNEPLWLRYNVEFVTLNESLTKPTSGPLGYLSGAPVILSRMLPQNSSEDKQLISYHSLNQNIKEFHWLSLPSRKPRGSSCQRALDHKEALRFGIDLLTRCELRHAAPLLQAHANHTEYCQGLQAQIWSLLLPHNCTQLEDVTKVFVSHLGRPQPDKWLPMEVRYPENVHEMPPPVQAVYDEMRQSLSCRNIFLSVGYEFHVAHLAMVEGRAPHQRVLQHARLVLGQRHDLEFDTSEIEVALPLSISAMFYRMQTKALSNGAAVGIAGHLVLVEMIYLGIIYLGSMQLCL


Columns and labels:
[1] = molecular target: T1, Tctn-GFP (pTub-Tctn-GFP) (Drosophila melanogaster); assay: pull-down; GFP pull-down with GFP-Trap agarose from lysates of transfected S2 cells (10 mM Tris-HCl pH 7.5, 150 mM NaCl, 0.5 mM EDTA, 1% Triton-X-100, diluted), 4°C, four washes with 350 mM NaCl; Dsh-GFP or Tctn-GFP held, Vang-Flag detected by Western blot (Figure 6A)
[2] = molecular target: Vang-K418C-Flagx3 (Drosophila melanogaster); assay: pull-down; Flag pull-down with anti-Flag M2 affinity gel from lysates of transfected S2 cells (50 mM Tris-HCl pH 7.5, 150 mM NaCl, 1 mM EDTA, 1% Triton-X-100), 4°C, washes with 350 mM NaCl and with 500 mM NaCl, 0.1% SDS; Flag-tagged Vang held, Dsh-GFP, Myc-Pk or HA-Dgo detected by Western blot (Figure 6B, C, D, F)
[3] = molecular target: Vang-Flag wild-type (pUAS-Vang-Flagx3) (Drosophila melanogaster); assay: as above
[4] = molecular target: Vang-R332H-Flagx3 (Drosophila melanogaster); assay: as above
[5] = molecular target: Vang-V391T-Flagx3 (Drosophila melanogaster); assay: as above

Row | Molecule | binding [1] | binding [2] | binding [3] | binding [4] | binding [5]
1 | Vang-Flag wild-type (pUAS-Vang-Flagx3) (Drosophila melanogaster) | no binding | – | – | – | –
2 | Myc-Pk (pAc5.1-Myc-Pk) (protein, UniProt A1Z6W3 1-1299) MSSLSTGGGAGGSSGGPGGADAAAAPAAGQATVTATGNMEPAMVPRTANLLACKQWWRVCFLYGDQQKYYRQLYSKAAAQRLADANQEPDNARDREYDTVDCDLIAGQLDAVEDADDGIDLGDHSSTPKGGATTAGRPLFPHSSSPRRSKKLLRSLRAHVRGEKLPKNDTTTANESSEVTQRNARVTVLDDPFLFGIDADHLGDLVVRGKRYSTLDATENMARFYAEQEATAQVLEIIEQEEESPEQEAPKPALPPKQKQQRPVPPLPPPPANRVTQDQGTQPAAPQVPLQPLTAGDLQFLNLSLRQRSLPRSMKPFKDAHDISFTFNELDTSAEPEVATGAAQQESNEPISRTPLTQISYLQKIPTLPRHFSPSGQGLATPPALGSGGMGLPSSSSASALYAAQAAAGILPTSPLPLQRHQQYLPPHHQQHPGAGMGPGPGSGAAAGPPLGPQYSPGCSANPKYSNAQLPPPPHHHHQLSPALSTPSPPSLLHHPAGGTSSASAHAPFLGGPHMDMQRQSHSDDDSGCALEEYTWVPPGLRPDQVRLYFSQIPDDKVPYVNSPGEQYRVRQLLHQLPPHDNEVRYCHSLTDEERKELRLFSTQRKRDALGRGNVRQLMSARPCDGCDDLISTGDIAVFATRLGPNASWHPACFACSVCRELLVDLIYFHRDGRMYCGRHHAETLKPRCSACDEIILADECTEAEGRAWHMNHFACHECDKQLGGQRYIMREGKPYCLHCFDAMFAEYCDYCGEAIGVDQGQMSHDGQHWHATDECFSCNTCRCSLLGRAFLPRRGAIYCSIACSKGEPPTPSDSSGTGMYTTPTPPTQRVRPHPQAPLPARIPSSHASSSPPMSPQQQQQHQATFNQAMYQMQSQQMEAAGGLVDQSKSYAASDSDAGVVKDLEHGGHMGGGDLTDFSGGRASSTSQNLSPLNSPGDFQPHFLPKPMELQRDGVYNFNEMSSNLDAAWSAKPTNSYHLQRQLLENPHTASMPELAGKLVAPPAHMQHLSQLHAVSSHQFQQHEYADILHPPPPPPGEIPELPTPNLSVASTALPPELMGSPTHSAGDRSLNTPMSTQSASHAPPHPVSILSGASSSSPMSGEPAKKKGVRFEGIPDTLPRSRSYSGNGAGTSGGGERERDRDKDKEGGGRHGHGHSSRRRRRRKSSSSSSHHRSGSGHRSHSTTRADTYAPAQPLSSSYQGPPSVLQAANLVHESPSRQQREREREREREESEESDVCSTCSSSSSSSEDYMMMYQLPQRRHYGGVRVSYVPNDALAYDRKRKPSELGGDKDKNCIIS | – | binds | binds | binds | binds
